Test results: patent publication US20220168310A1, “INHIBITION OF ADENOVIRUS WITH FILOCICLOVIR” (Microbiotix, Inc., priority 2019, published 2022)
At least one read-out could not be matched to a standard name with certainty.

Test system: Adenovirus 5 (AdV5)
Experiment: Cytopathic effects (CPE) reduction assay, AdV5 in HFF cells, 384-well
Assay type: cell-based, human adenovirus
Conditions: CC50/EC50, AdV5

## Nc1nc2c(ncn2/C=C2/CC2(CO)CO)c(=O)[nH]1 [FCV, 2-amino-9-{(Z)-[2,2-bis(hydroxymethyl)cyclopropylidene]methyl}-3,9-dihydro-6H-purin-6-one]
  SI: 43.1
Listed as filociclovir
  SI: 43
